US20240317890A1 (INSTITUT CURIE, published 2024)
Results are given in words; binding and its absence hold for the method and conditions named. Some results given as binding are weak or reduced against the parent protein; the word gives no strength.

B1: sdAb 3 (VHH)
VHH: EVQLQASGGGFVQPGGSLRLSCAASGRYYEQSIMGWFRQAPGKEREFVSAISEYGGWQHYYADSVKGRFTISRDNSKNTVYLQMNSLRAEDTATYYCAIRHQNQSMMYWGQGTQVTVSS
B2: anti-HER2 humanized synthetic single domain antibody sdAb no 4 (VHH)
VHH: EVQLQASGGGFVQPGGSLRLSCAASGYTSRESGMGWFRQAPGKEREFVSAISRDQDGISYYADSVKGRFTISRDNSKNTVYLQMNSLRAEDTATYYCAMIPLTRNAKYWGQGTQVTVSS
notes: Purified sdAb in BLI; Any tag is not described for this assay; also called sdAb 4
B3: anti-HER2 humanized synthetic single domain antibody sdAb no 1 (VHH)
VHH: EVQLQASGGGFVQPGGSLRLSCAASGATSNISNMGWFRQAPGKEREFVSAISRAESRPLYYADSVKGRFTISRDNSKNTVYLQMNSLRAEDTATYYCAYMPLVRHKAYWGQGTQVTVSS
notes: Purified sdAb in BLI; also called sdAb 1; hsdAb1
B4: anti-HER2 humanized synthetic single domain antibody sdAb no 6 (VHH)
VHH: EVQLQASGGGFVQPGGSLRLSCAASGRGYTGTTMGWFRQAPGKEREFVSAISWTSNQTSYYADSVKGRFTISRDNSKNTVYLQMNSLRAEDTATYYCAMMPLPRWKGYWGQGTQVTVSS
notes: Purified sdAb in BLI; Any tag is not described for this assay; also called sdAb 6
B5: anti-HER2 humanized synthetic single domain antibody sdAb no 2 (VHH)
VHH: EVQLQASGGGFVQPGGSLRLSCAASGDSYNESSMGWFRQAPGKEREFVSAISARGNHPLYYADSVKGRFTISRDNSKNTVYLQMNSLRAEDTATYYCASMPMPKWKKYWGQGTQVTVSS
notes: Purified sdAb in BLI; also called sdAb 2; hsdAb 2
B6: anti-HER2 humanized synthetic single domain antibody sdAb no 5 (VHH)
VHH: EVQLQASGGGFVQPGGSLRLSCAASGYTFSEETMGWFRQAPGKEREFVSAISWNHTFFEYYADSVKGRFTISRDNSKNTVYLQMNSLRAEDTATYYCAVTPLPPNKAYWGQGTQVTVSS
notes: Purified sdAb in BLI; also called sdAb 5; hsdAb 5

Molecular target: Her2 rFc (Homo sapiens) (UniProt P04626)
Experiment: ELISA on HER2 fused with a rabbit Fc, control rabbit IgG beside it

binding, binds:
B1, B2, B3, B4, B5, B6
